This is an account of results in the supplement of paper PMC4749390.

SMILES strings stand for the structures. Where a name gives a salt, the structure may show the parent alone. Some of the results follow. Single values are uncertain here, since repeats match poorly.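 Wild-type human LRH-1, a heavily sumoylated nuclear receptor, is tetracycline-inducible in stable JEG3 cells. RT-qPCR measured SUMO-sensitive APOC3 and MUC1 transcripts, which rise with SUMO-less LRH-1 or UBC9 knockdown, versus TBP and DMSO controls. Robust Z-scores beyond ±2 flagged primary hits, followed by toxicity and TBP filtering.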

The assay relates to JEG3 expressing hLRH-1. In words: APOC3 transcript change (ddCt vs TBP and DMSO), Z-score over library; higher = higher APOC3 expression. Particulars: 10 µM; time (hr): 24.
On to `CCCCC(O)c1ccccc1` (stereo unspecified) [fenipentol], for which the “APOC3 transcript change (Z-score)” value came to 0.575.
Consider `COc1cc2nc(N3CCN(C(=O)C4COc5ccccc5O4)CC3)nc(N)c2cc1OC` (stereo unspecified) [doxazosin mesylate], for which the “APOC3 transcript change (Z-score)” value was found to be 0.239.
For `Cc1nc2ccccn2c(=O)c1CCN1CCC(C(=O)c2ccc(F)cc2)CC1` [Pirenperone], the “APOC3 transcript change (Z-score)” value is -0.953.
As for `Cc1cc(C(C)(C)C)c(O)c(C(C)(C)C)c1` [2,6-di-t-butyl-4-methylphenol], the “APOC3 transcript change (Z-score)” value is -0.996.
For `CO[C@H]1C[C@H](O[C@H]2[C@H](C)O[C@@H](O[C@@H]3/C(C)=C/C[C@@H]4C[C@@H](C[C@]5(C=C[C@H](C)[C@@H](C6CCCCC6)O5)O4)OC(=O)[C@@H]4C=C(C)[C@@H](O)[C@H]5OC/C(=C\C=C\[C@@H]3C)[C@]54O)C[C@@H]2OC)O[C@@H](C)[C@@H]1O` [doramectin], the “APOC3 transcript change (Z-score)” value came to 0.00636.
Take `CCCC[C@@H](CC)COC(=O)c1ccccc1O` [octisalate]: the “APOC3 transcript change (Z-score)” value amounted to 0.0423.
The result for `O=C(O)CCCCC1CCSS1` (stereo unspecified) [thioctic acid] reads -0.324; that for `Nc1ccc(S(=O)(=O)Nc2ccnn2-c2ccccc2)cc1` [Sulfaphenazole], -1.02.
In the case of `CC(=O)/N=c1\sc(S(N)(=O)=O)nn1C` [methazolamide], the “APOC3 transcript change (Z-score)” value is -1.7.
Consider `O=C(O)CCNC(=O)c1ccc(N=Nc2ccc(O)c(C(=O)O)c2)cc1` [balsalazide disodium], for which the “APOC3 transcript change (Z-score)” value was -0.607.
The result for `CC[N+](C)(C)c1cccc(O)c1` [edrophonium chloride] reads -0.0757; that for `CC(=O)[C@@]1(O)CC[C@H]2[C@@H]3C=C(Cl)C4=CC(=O)[C@@H]5C[C@@H]5[C@]4(C)[C@H]3CC[C@@]21C` [cyproterone], 0.207.
As for `CCCOc1cc(N)ccc1C(=O)OCCN(CC)CC` [propoxycaine hydrochloride], the “APOC3 transcript change (Z-score)” value was -0.0018.
As for `NCCc1c[nH]cn1` [Histamine dihydrochloride], the “APOC3 transcript change (Z-score)” value was determined as 0.483.
`CN1CCN(C(c2ccccc2)c2ccccc2)CC1` [cyclizine]: the “APOC3 transcript change (Z-score)” value is 0.192.
For the molecule `OC1(c2ccc(Cl)c(C(F)(F)F)c2)CCN(CCCC(c2ccc(F)cc2)c2ccc(F)cc2)CC1` [penfluridol], the “APOC3 transcript change (Z-score)” value was found to be 0.177.
Turning to `CC(O)CN(CCN(CC(C)O)CC(C)O)CC(C)O` (stereo unspecified) [editol], the “APOC3 transcript change (Z-score)” value is 0.616.
In the case of `CC(=O)OCC(=O)[C@@]1(O)CC[C@H]2[C@@H]3CCC4=CC(=O)CC[C@]4(C)[C@@]3(F)[C@@H](O)C[C@@]21C` [fludrocortisone acetate], the “APOC3 transcript change (Z-score)” value was 0.498.
With `FC(F)(F)C(Cl)Br` (stereo unspecified) [halothane], the “APOC3 transcript change (Z-score)” value amounted to 1.13.
On to `CCCCN(CCCC)CCCOC(=O)c1ccc(N)cc1` [butacaine], for which the “APOC3 transcript change (Z-score)” value stood at 0.972.
The result for `CC(=O)OCC(=O)[C@@]1(O)CC[C@H]2[C@@H]3CCC4=CC(=O)C=C[C@]4(C)[C@@]3(Cl)[C@@H](Cl)C[C@@]21C` [dichlorisone acetate] reads -0.214.
